Measured values as given in article PMC10905675, “INX-315, a Selective CDK2 Inhibitor, Induces Cell Cycle Arrest and Senescence in Solid Tumors” (Cancer Discovery, 2023).

Test system: Hs68
Assay: CellTiter Glo viability assay
Type: cell-based
Details: benign human fibroblast cell line Hs68
Protocol: An exception to this is MCF7PDRCl5-1 cells which were first cultured for 5 days without palbociclib then plated as described. MCF7PDRCl5-1 cells were treated with either a dose curve of the indicated CDK4/6i or a dose curve of INX-315 + 1 µmol/L of the indicated CDK4/6i. Cell viability was determined using the CellTiter-Glo assay (Promega, G9241) following manufacturer's instructions. Plates were processed on either BioTek Synergy2 multi-mode (Agilent) or ClarioSTAR (BMG Labtech) plate readers. T47D and MCF7 cells were seeded into […] plates using BioTek 406 (Aglient) and treated with a ten-point dose concentration from 10 µmol/L to 0.3 nmol/L of INX-315 for 2× doubling times. Plates were fixed with 4% PFA and stained with Rhodamine-Phalloidin (Bio-Trend, 00027) and DAPI (5 mg/mL, Invitrogen, catalog no. D1306). Plates were imaged using CellInsight CX7 LZR and DAPI-positive cells were counted using Thermo Fisher Scientific HCS Studio Cell Analysis Software.

## CCc1cnn2c(NCc3ccc[n+]([O-])c3)cc(N3CCCC[C@H]3CCO)nc12 [dinaciclib]
  IC50: 7 nM
